In experiment [1] the target is T1, Flag-tagged TRAF6 (aa 260–522) (UniProt Q9Y4K3).
T1 sequence: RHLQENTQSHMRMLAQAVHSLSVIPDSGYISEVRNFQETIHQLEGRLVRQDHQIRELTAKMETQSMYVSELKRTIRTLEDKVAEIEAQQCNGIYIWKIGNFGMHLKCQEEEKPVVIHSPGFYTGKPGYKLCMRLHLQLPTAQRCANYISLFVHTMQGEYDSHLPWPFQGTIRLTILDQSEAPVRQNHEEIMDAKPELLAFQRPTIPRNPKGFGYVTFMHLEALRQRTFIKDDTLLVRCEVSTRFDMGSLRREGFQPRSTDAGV
In words: co-IP; HEK293T cells cotransfected with tagged plasmids; NP-40 lysis buffer (20 mM Tris-HCl pH 8.0, 1 mM EDTA, 1% NP-40, 150 mM NaCl); immunoblotting with the indicated antibodies.

Experiment [2] has as its target T2, Flag-tagged TRAF6 (aa 1–349) (UniProt Q9Y4K3).
T2 sequence: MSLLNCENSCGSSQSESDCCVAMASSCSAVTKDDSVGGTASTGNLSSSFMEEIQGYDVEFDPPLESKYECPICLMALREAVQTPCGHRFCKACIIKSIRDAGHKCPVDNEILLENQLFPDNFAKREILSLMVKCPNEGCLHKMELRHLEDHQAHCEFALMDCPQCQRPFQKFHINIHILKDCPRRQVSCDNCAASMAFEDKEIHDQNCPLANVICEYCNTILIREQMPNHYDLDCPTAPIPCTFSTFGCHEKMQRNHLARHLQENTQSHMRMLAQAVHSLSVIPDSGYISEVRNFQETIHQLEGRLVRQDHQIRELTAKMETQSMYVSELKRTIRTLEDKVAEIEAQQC
The experiment is described as above.

Experiment [3] concerns the target T3, Flag-tagged TRAF6 (aa 110–522) (UniProt Q9Y4K3).
T3 sequence: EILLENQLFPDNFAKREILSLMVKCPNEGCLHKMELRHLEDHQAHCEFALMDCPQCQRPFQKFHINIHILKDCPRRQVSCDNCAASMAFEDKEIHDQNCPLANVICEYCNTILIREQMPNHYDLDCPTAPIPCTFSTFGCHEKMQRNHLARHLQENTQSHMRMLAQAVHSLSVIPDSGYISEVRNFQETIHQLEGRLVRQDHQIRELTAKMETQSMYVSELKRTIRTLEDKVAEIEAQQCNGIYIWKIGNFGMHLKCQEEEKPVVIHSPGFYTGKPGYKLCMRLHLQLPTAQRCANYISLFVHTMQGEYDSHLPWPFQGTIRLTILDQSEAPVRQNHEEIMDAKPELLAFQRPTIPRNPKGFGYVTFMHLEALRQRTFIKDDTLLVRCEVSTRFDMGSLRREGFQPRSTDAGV
The description is as above.

Experiment [4] deals with T4, TRAF6, endogenous in colonic tissue (not stated (colonic tissue of mice or of patients)) (UniProt P70196).
T4 sequence: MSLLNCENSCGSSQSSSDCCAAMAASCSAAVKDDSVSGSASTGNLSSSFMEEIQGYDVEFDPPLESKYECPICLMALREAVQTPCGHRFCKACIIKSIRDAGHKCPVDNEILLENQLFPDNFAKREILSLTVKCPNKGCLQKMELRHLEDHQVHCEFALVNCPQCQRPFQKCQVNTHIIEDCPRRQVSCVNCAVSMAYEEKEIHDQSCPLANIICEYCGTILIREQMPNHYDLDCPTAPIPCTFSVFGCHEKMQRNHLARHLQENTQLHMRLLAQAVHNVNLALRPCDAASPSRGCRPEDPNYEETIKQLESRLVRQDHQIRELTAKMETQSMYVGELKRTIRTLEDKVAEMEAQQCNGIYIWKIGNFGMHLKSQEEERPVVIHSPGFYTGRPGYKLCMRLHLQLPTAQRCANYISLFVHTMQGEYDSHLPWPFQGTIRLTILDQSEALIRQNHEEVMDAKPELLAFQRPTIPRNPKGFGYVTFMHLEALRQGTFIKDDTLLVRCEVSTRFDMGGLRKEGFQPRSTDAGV
In words: co-IP; colonic tissue homogenised in RIPA lysis buffer with 1% PMSF, lysed in NP-40 lysis buffer.

Results are given in words; binding and its absence hold for the method and conditions named. Binding seen in cells or lysates may run through a third protein. Some binding calls cover weakened binding; strength is not graded here. For some of these results: Tags and fused reporters may be left off the sequences shown.

B1: HA-tagged ASB3 (ankyrin repeat and SOCS box-containing protein 3) (protein, UniProt Q9Y575 1-518)
chain: MDFTEAYADTCSTVGLAAREGNVKVLRKLLKKGRSVDVADNRGWMPIHEAAYHNSVECLQMLINADSSENYIKMKTFEGFCALHLAASQGHWKIVQILLEAGADPNATTLEETTPLFLAVENGQIDVLRLLLQHGANVNGSHSMCGWNSLHQASFQENAEIIKLLLRKGANKECQDDFGITPLFVAAQYGKLESLSILISSGANVNCQALDKATPLFIAAQEGHTKCVELLLSSGADPDLYCNEDSWQLPIHAAAQMGHTKILDLLIPLTNRACDTGLNKVSPVYSAVFGGHEDCLEILLRNGYSPDAQACLVFGFSSPVCMAFQKDCEFFGIVNILLKYGAQINELHLAYCLKYEKFSIFRYFLRKGCSLGPWNHIYEFVNHAIKAQAKYKEWLPHLLVAGFDPLILLCNSWIDSVSIDTLIFTLEFTNWKTLAPAVERMLSARASNAWILQQHIATVPSLTHLCRLEIRSSLKSERLRSDSYISQLPLPRSLHNYLLYEDVLRMYEVPELAAIQDG
For the molecule B1, the binding result in experiment [1] is listed as “binds”; in experiment [2], “no binding”; in experiment [3] it was “binds”.

B2: ASB3, endogenous in colonic tissue (protein, UniProt Q9WV72 1-525)
chain: MDFTEAYSDTCSTVGLAAREGNVKILRKLLKKGRSVDVADNRGWMPIHEAAYHNAVECLQMLIHTDSSENYIKAKTFEGFCALHLAVSQGHWKITQILLEAGADPNETTLEETTPLFLAVESGRIDVLKLLLQHGANVNGSHSMSGWNSLHQASFQGNAETIRLLLKQGADRECQDDFGITPLFVAAQYGKLESMSILISSGANVNCQALDKATPLFIAAQEGHTKCVELLLSSGADPDLYCNEDNWQLPIHAAAQMGHTETLDLLIPRTNRACDTGPDKVSPVYSAVFGGREECLEMLLQNGYSPDAQMCLVFGFSSPLCMAFQKDCDFSGIVNILLKYGAQLNELHLAYCLKYEKFSMFCSFLKKGSLMVPWNHTSEFISYAVKAQTKYKAWLPHLLLAGFDPLILLCSSSWVDSASDDILIFTLEFSNWKRLPSAVEKMLSVRANSSWALQQHLASVPSLTHLCRLEIRASLKAEHLHSDIFIHQLPLPRSLQNYLLYEEVLRMNEILEPAANQDGETSKAT
With B2, in experiment [4], the binding entry is given as “binds”.

(Values after PMC11389410.)
